# “And” between values parts separate entries of the source, which are not always exact repeats. Identical values can stand only once. This list was built around the results that the source calls inconclusive (neither active nor inactive); the mix of calls is not that of the screen. Potencies of inconclusive entries are doubtful fits and often do not repeat. The source holds several records for some structures; these can differ, active in one and inactive in another. The source made the active and inactive calls. Rule for the calls: active = hit-call score of the fitted dose curve at least 0.9, where 1 is the maximum; inconclusive = response in the unintended direction; inactive = score below 0.9.
# Protein sequences, listed by entry. Tags and fused reporters are not part of them.
# UniProt P04637, whole entry, looked up: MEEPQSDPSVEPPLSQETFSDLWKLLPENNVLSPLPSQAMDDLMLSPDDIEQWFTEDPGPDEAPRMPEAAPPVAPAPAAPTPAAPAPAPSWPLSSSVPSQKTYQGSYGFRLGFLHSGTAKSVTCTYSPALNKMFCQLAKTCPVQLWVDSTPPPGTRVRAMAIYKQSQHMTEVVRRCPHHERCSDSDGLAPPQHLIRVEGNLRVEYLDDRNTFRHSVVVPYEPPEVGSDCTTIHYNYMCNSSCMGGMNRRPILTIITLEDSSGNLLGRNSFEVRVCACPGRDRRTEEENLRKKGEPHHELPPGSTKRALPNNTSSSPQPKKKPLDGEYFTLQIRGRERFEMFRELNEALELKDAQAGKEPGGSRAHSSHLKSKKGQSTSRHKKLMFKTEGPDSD
# How the values were obtained:
# [1] = TOX21_p53_BLA_p4_viability: Viability Assessment in the Tox21 HCT-116 p53 Agonism Beta-lactamase Assay, Phase 4 (AID 2283597);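 note: hits lower the luminescence signal meaning cytotoxicity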
# In short: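 Luminescent ATP readout (CellTiter-Glo, 30 min, room temperature) in the same wells as the p53 bla ratio. HCT116 cells were treated for 16 h at 37C with DMSO-dissolved compounds.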
# [2] = TOX21_p53_BLA_p5_viability: Viability Assessment in the Tox21 HCT-116 p53 Agonism Beta-lactamase Assay, Phase 5 (AID 2283600)
# In short: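 Seeded cells (4000/well) settle 5 h before compound addition. Plates then incubate 16 h at 37C, receive FRET substrate for 2 h, and finally CellTiter-Glo, with luminescence measured after a 30 min room-temperature incubation.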
# [3] = biological target: Cellular tumor antigen p53 (Homo sapiens) (UniProt P04637); experiment: TOX21_p53_BLA_p4_ratio: Tox21 HCT-116 p53 Agonism Beta-lactamase Assay, Ratio, Phase 4 (AID 2283601)
# In short: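 HCT116 cells carrying an inducible beta-lactamase reporter were plated at 4000 cells/well, rested 5 h, then exposed to compounds in DMSO (217-fold dilution) for 16 h at 37C. CCF4-AM substrate was loaded 2 h at room temperature; 460/530 nm emission ratio scored gain-of-signal versus DMSO.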
# [4] = Tanguay_ZF_120hpf_EYE_legacy: (Legacy) Oregon State University Tanguay Lab 120 Hour Post-fertilization zebrafish Assay for Eye Malformation (AID 2283636);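 note: binary presence or absence of eye malformation scored by brightfield in 120 hpf larvae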
# In short: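 Dechorionated wild-type Tropical 5D zebrafish embryos were exposed statically from 6 hpf, one per well, to 120 hpf at 28C in sealed, foil-covered plates with 0.64% DMSO. Eye malformation was scored present/absent by brightfield microscopy against DMSO controls.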
# [5] = Tanguay_ZF_120hpf_SNOU_legacy: (Legacy) Oregon State University Tanguay Lab 120 Hour Post-fertilization zebrafish Assay for Snout Malformation (AID 2283637)
# In short: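 Tropical 5D wild-type zebrafish embryos, dechorionated with pronase at 4 hpf, were exposed singly from 6 hpf to 120 hpf statically at 28C in 0.64% DMSO. Snout malformation was scored present/absent by brightfield microscopy, fitted against DMSO.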
# [6] = Tanguay_ZF_120hpf_JAW_legacy: (Legacy) Oregon State University Tanguay Lab 120 Hour Post-fertilization zebrafish Assay for Jaw Malformation (AID 2283638);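 note: active means more embryos with jaw malformation than DMSO controls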
# In short: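 Wild-type 5D embryos, chorion removed at 4 hpf, dosed singly from 6 hpf; 28C static, sealed, foil-covered, to 120 hpf. Endpoint: jaw defect yes/no (brightfield); mortality excludes scoring.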
compound,measurement,setting,value
C=CCCCCCCCCCC,AC50,[1],inconclusive: 45.8 µM
same,outcome,[2],inactive
same,AC50,[3],inconclusive: 45.8 µM
same,outcome,[3],inactive
CCCCCCOc1cc(C)c(O)c(C)c1C,AC50,[1],active: 46.1 µM
same,AC50,[2],inconclusive: 46.5 µM
same,AC50,[3],active: 82.5 µM
CC(C)CCCCCOC(=O)CCS,AC50,[1],inconclusive: 46.1 µM
same,AC50,[2],inconclusive: 46.1 µM
same,AC50,[3],inconclusive: 46.1 µM
O=C1c2ccccc2C(=O)N1CCc1noc(-c2ccc(CN3CCCCCC3)s2)n1,outcome,[1],inactive
same,outcome,[2],inactive
same,AC50,[3],inconclusive: 71.1 µM
C=Cc1ccc(OC(C)=O)cc1,AC50,[1],inconclusive: 3 µM
same,outcome,[2],inactive
same,AC50,[3],inconclusive: 46.1 µM
CCOC(=S)SSC(=S)OCC,AC50,[1],inconclusive: 23 µM
same,AC50,[2],inconclusive: 23 µM
same,outcome,[3],inactive
COc1ccc(N)c([N+](=O)[O-])c1,AC50,[1],inconclusive: 86.9 µM
same,outcome,[2],inactive
same,outcome,[3],inactive
CC(=O)OC(C)c1ccccc1 (centres undefined),AC50,[1],inconclusive: 46.1 µM
same,outcome,[2],inactive
same,outcome,[3],inactive
O=S(=O)(O)c1ccc(N=Nc2c(O)ccc3ccccc23)cc1,AC50,[1],active: 44 µM
same,outcome,[2],inactive
same,outcome,[3],inactive
Nc1ccccc1N,AC50,[1],active: 23 µM
same,AC50,[2],inconclusive: 47 µM
same,outcome,[3],inactive
Oc1ccccc1,AC50,[1],inconclusive: 46.1 µM and inconclusive: 44.8 µM and inconclusive: 23 µM
same,AC50,[2],inconclusive: 46.1 µM
same,AC50,[3],inconclusive: 46.1 µM and inconclusive: 23 µM and inconclusive: 45.1 µM
c1ccc2n[nH]nc2c1,outcome,[1],inactive
same,AC50,[2],inconclusive: 46.1 µM
same,outcome,[3],inactive
c1ccc(CCc2ccccc2)cc1,AC50,[1],inconclusive: 46.1 µM
same,outcome,[2],inactive
same,outcome,[3],inactive
CCC(=O)OC(C)c1ccccc1 (centres undefined),AC50,[1],inconclusive: 32.2 µM
same,outcome,[3],inactive
Nc1cccc(N)c1,AC50,[1],inconclusive: 46.1 µM
same,outcome,[2],inactive
same,AC50,[4],inconclusive: 86.2 µM
Cc1ccc(-c2ccccc2)cc1,AC50,[1],inconclusive: 46.1 µM
same,AC50,[3],inconclusive: 46.1 µM
CC1(C)[C@H]2CC[C@]1(C)[C@H](O)C2,AC50,[1],inconclusive: 7.04 µM
same,AC50,[3],inconclusive: 46.1 µM and inconclusive: 23 µM
CC(C)CCCC(C)(C)O,AC50,[1],inconclusive: 46.1 µM
same,AC50,[3],inconclusive: 46.1 µM
COC(=O)c1cccc(C(=O)OC)c1,AC50,[1],inconclusive: 72.9 µM
same,outcome,[3],inactive
COC(C)(C)CCO,AC50,[1],inconclusive: 35.2 µM
same,outcome,[3],inactive
CCc1cccc(CC)c1N,AC50,[1],inconclusive: 79.6 µM and inconclusive: 9.21 µM
same,AC50,[2],inconclusive: 46.1 µM
same,AC50,[4],inconclusive: 0.000616 µM
same,AC50,[5],inconclusive: 1.51 µM
O=C1OC2(c3cc(Br)c(O)c(Br)c3Oc3c2cc(Br)c(O)c3Br)c2c(Cl)c(Cl)c(Cl)c(Cl)c21,AC50,[1],active: 50.2 µM and active: 23.6 µM
same,AC50,[3],active: 48.7 µM and active: 26.5 µM
Cc1ccc(S(=O)(=O)O)c(C)c1,AC50,[1],inconclusive: 46.1 µM
same,AC50,[3],inconclusive: 46.1 µM
Cc1ccccc1S(N)(=O)=O,outcome,[1],inactive
same,AC50,[3],inconclusive: 46.1 µM
CCOc1ccc(N)c([N+](=O)[O-])c1,AC50,[1],inconclusive: 46.1 µM
same,AC50,[3],inconclusive: 87 µM
O=C(c1cc(O)c(O)c(O)c1)c1ccc(O)c(O)c1O,outcome,[1],inactive
same,AC50,[3],active: 79.2 µM and active: 49.9 µM
Cc1ccc(C(=O)c2cc(O)c(O)c([N+](=O)[O-])c2)cc1,AC50,[1],active: 46.1 µM
same,AC50,[3],active: 49.6 µM
N#Cc1ccccc1,outcome,[1],inactive
same,AC50,[3],inconclusive: 45.5 µM
OC1OC[C@@H](O)[C@H](O)[C@H]1O (some centres undefined),AC50,[1],inconclusive: 46.1 µM
same,AC50,[3],inconclusive: 46.1 µM
CCOC(=O)CCC(=O)OCC,AC50,[1],inconclusive: 76.8 µM
same,outcome,[3],inactive
CCCCCCCCC=CCCCCCCCC1=NCCN1CCO,AC50,[1],active: 86.4 µM
same,AC50,[3],active: 87.8 µM
C=CCCCCCCCCCCCC,AC50,[1],inconclusive: 46.1 µM
same,AC50,[2],inconclusive: 46.1 µM
same,AC50,[5],inconclusive: 1.65 µM
same,AC50,[6],inconclusive: 3.15 µM
CCC(=O)OCCc1ccccc1,AC50,[1],inconclusive: 44.5 µM
same,outcome,[3],inactive
Oc1ccc(Cl)cc1C1CCCC1,AC50,[1],active: 66.6 µM
same,AC50,[3],active: 55.6 µM

# Reference: PubChem BioAssay (EPA / NIEHS)
